US20250064955A1 (priority 2021, published 2025)

Experiment: general procedure: solution-phase peptide synthesis; EDC/HOBt; HATU/DIEA; EDCI/HOPO/2,6-lutidine
Settings: late stage modification step

Row | Substance | step yield | crude HPLC purity (210 nm) [%] | final HPLC purity (210 nm) [%]
1 | (S)-N-((3R,4S,5S)-1-((S)-2-((1R,2R)-3-((3-((S)-2-((S)-2-Aminopropanamido)propanamido)phe methyl)amino)-1-methoxy-2-methyl-3-oxopropyl)pyrrolidin-1-yl)-3-methoxy-5-methyl-1-oxohe ptan-4-yl)-2-((S)-2-(dimethylamino)-3-methylbutanamido)-N,3-dimethylbutanamide 22 | 51% |  | 
2 | (S)-N-((3R,4S,5S)-1-((S)-2-((1R,2R)-3-((3-((S)-2-((S)-2-aminopropanamido)propanamido)phe methyl)amino)-1-methoxy-2-methyl-3-oxopropyl)pyrrolidin-1-yl)-3-methoxy-5-methyl-1-oxohe ptan-4-yl)-2-((S)-2-(dimethylamino)-3-methylbutanamido)-N,3-dimethylbutanamide 13 | 65% |  | 
3 | (S)-N-((3R,4S,5S)-1-((S)-2-((1R,2R)-3-((3-((S)-2-((S)-2-aminopropanamido)propanamido)phe methyl)amino)-1-methoxy-2-methyl-3-oxopropyl)pyrrolidin-1-yl)-3-methoxy-5-methyl-1-oxohe ptan-4-yl)-2-((S)-2-(dimethylamino)-3-methylbutanamido)-N,3-dimethylbutanamide bis(2,2,2-t rifluoroacetate) | 61% yield | 99.9 | 
4 | (S)-N-((3R,4S,5S)-1-((S)-2-((1R,2R)-3-((3-aminophenethyl)amino)-1-methoxy-2-methyl-3-oxo propyl)pyrrolidin-1-yl)-3-methoxy-5-methyl-1-oxoheptan-4-yl)-2-((S)-2-(dimethylamino)-3-met hylbutanamido)-N,3-dimethylbutanamide |  |  | 99.48
